Literature values as cited in patent US20100120050A1, “Biomarkers For Assessing Altherosclerotic Potential” (ENTELOS, INC., priority 2008, published 2010).
At least one compound was matched to its structure with a doubt left.

Details: cited from earlier work; for HDL cholesterol, change after 6 months / LDL cholesterol, change after 6 months / Large HDL Particles, change after 6 months / Large LDL Particles, change after 6 months / Small HDL Particles, change after 6 months / Small LDL Particles, change after 6 months: 6 months (24 week) treatment, type 2 diabetes and dyslipidemia, based on Deeg et al, simulated for virtual patients; for HDL particles / circulating LDL particles: clinical data

Compound	HDL cholesterol, change after 6 months [%]	LDL cholesterol, change after 6 months [%]	Large HDL Particles, change after 6 months [%]	Large LDL Particles, change after 6 months [%]	Small HDL Particles, change after 6 months [%]	Small LDL Particles, change after 6 months [%]	HDL particles	circulating LDL particles
CN(CCOc1ccc(CC2SC(=O)NC2=O)cc1)c1ccccn1 (stereo not shown) [rosiglitazone]	5.8	19.6	−10.5	71.7	−0.4	−3.4	decrease	increase
CCc1ccc(CCOc2ccc(CC3SC(=O)NC3=O)cc2)nc1 (stereo not shown) [pioglitazone]	13.4	11.7	16.2	88.4	0.4	−17.1	opposite effect	opposite effect
